# Measurements reported in PubChem BioAssay AID504327 (National Center for Advancing Translational Sciences (NCATS), 2011).
# Protein sequences, listed by entry. Tags and fused reporters are not part of them.
# UniProt Q92830, whole entry, looked up: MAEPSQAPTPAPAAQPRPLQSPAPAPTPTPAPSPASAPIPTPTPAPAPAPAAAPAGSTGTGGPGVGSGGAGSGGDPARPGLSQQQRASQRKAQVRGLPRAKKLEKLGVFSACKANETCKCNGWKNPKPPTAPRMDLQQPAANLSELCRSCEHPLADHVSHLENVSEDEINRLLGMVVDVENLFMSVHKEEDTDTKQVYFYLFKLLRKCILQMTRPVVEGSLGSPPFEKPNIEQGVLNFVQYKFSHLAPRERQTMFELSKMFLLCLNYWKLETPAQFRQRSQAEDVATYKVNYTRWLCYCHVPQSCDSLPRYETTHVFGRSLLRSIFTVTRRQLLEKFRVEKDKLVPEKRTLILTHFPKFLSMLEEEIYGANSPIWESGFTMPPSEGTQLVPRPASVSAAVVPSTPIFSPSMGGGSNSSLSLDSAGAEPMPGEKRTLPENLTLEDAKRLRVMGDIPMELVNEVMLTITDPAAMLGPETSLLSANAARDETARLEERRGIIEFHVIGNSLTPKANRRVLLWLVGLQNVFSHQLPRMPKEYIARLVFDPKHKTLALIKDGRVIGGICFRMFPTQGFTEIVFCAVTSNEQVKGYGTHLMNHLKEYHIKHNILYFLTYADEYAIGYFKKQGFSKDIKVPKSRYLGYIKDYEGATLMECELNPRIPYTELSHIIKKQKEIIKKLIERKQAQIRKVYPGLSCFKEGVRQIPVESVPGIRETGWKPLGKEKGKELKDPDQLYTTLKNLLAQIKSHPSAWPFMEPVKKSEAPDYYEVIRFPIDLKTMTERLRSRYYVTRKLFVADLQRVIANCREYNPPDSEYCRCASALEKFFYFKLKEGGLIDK
# About 820 (0.21%) of roughly 390,000 compounds were called active. Inconclusive results, whose numbers are uncertain, are shown with a selection of clear calls. Calls come from the whole dose curve; as a rule, active = well fitted inhibition curve with a large enough effect; inconclusive = small, poorly fitted or top-dose-only effect, or another doubt; inactive = no such curve, though single readings can be large or run the other way. Potencies beside an inconclusive call are fits to weak or partial responses and may not hold up.
# Target: Histone acetyltransferase KAT2A (Homo sapiens) (UniProt Q92830)
# Assay: qHTS Assay for Inhibitors of GCN5L2
# Conditions: GCN5L2 HAT assay, ThioGlo1 CoA-SH fluorescence; series mostly up to 58.9 µM
# Procedure, shortened: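 Compounds, pin-transferred from DMSO stocks, meet 20nM GCN5L2 for 15 min before the reaction begins with H3(1-25) peptide (75uM) and acetyl-CoA (70uM). Thiol-reactive ThioGlo1 reports CoA release over 20 min at room temperature.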
# Potency is the fitted concentration of half-maximal effect.
row,Compound,Potency
1,O=C(NCCN1CCc2ccccc2C1)C1CCN(S(=O)(=O)N2CCC3(CC2)OCCO3)CC1,"inconclusive: 0.794 µM [inhibitor, single point]"
2,O=C(Nc1nnc(SCCC2OCCO2)s1)C1CC(=O)N(c2ccc(F)cc2)C1 (stereo not given),"inconclusive: 8.91 µM [inhibitor, partial curve, poor fit]"
3,COC(=O)CN1C(C(=O)c2ccccc2)=C(OC(=O)c2ccccc2)c2ccccc2S1(=O)=O,inactive
4,Cc1ccc(NC(=O)CCCn2nc(C)c3c(C)n(-c4ccccc4)nc3c2=O)c(Cl)c1,"inconclusive: 15.8 µM [inhibitor, partial curve]"
5,COC(=O)CNC(=O)COC(=O)/C=C/c1cccs1,"inconclusive: 1 µM [inhibitor, full curve, poor fit]"
6,Cc1ccc(C(=O)Nc2cnc3ccccn3c2=O)cc1,"inconclusive: 7.94 µM [inhibitor, full curve, poor fit]"
7,COC(=O)c1sccc1NC(=O)c1c(Cl)cnn1C,"inconclusive: 7.08 µM [inhibitor, single point]"
8,CNC(=O)c1ccc(Nc2nc(-c3ccccc3)nc3ccccc23)cc1,inactive
9,CCC(=O)N1CCN(c2ccccc2NC(=O)COc2cccc(C)c2C)CC1,"inconclusive: 39.8 µM [inhibitor, single point]"
10,CCc1cc(=O)oc2c3c(cc(OCC(=O)NCCCCCC(=O)O)c12)OC(C)(C)CC3,"inconclusive: 39.8 µM [inhibitor, single point]"
11,CC(C)Cn1c(N)c(C(=O)NCCN2CCOCC2)c2nc3ccccc3nc21,"inconclusive: 22.4 µM [inhibitor, single point]"
12,c1ccc(CC[C@@H]2CC[C@@H](CCc3ccccc3)N2)cc1,"inconclusive: 39.8 µM [inhibitor, single point]"
13,CCOC(=O)c1c(C)nc2sc3c(c2c1-c1ccc(OC)cc1)NC(c1ccccc1)NC3=O (stereo not given),"inconclusive: 7.08 µM [inhibitor, single point]"
14,CCc1ccc(OCC(=O)NC(=S)Nc2ccc(C)cc2C)c(Br)c1,"inconclusive: 39.8 µM [inhibitor, single point]"
15,COC(=O)C(C)n1cnc2c(nnn2-c2ccc(C)cc2)c1=O (stereo not given),"inconclusive: 7.08 µM [inhibitor, single point]"
16,Cc1cccc(OCCn2c(=S)[nH]c3ccccc32)c1,inactive
17,CCOC(=O)/C(C#N)=C\c1ccc(CC)s1,inactive
18,COC(=O)Cc1coc2cc(OC)ccc12,"inconclusive: 39.8 µM [inhibitor, single point]"
19,COc1ccc(S(=O)(=O)Oc2cc(C(=S)N3CCOCC3)ccc2OC)cc1,"inconclusive: 0.447 µM [inhibitor, full curve, poor fit]"
20,C/C(=N\Nc1cc(C)nc(-c2ccccc2)n1)c1cccc([N+](=O)[O-])c1,"inconclusive: 39.8 µM [inhibitor, single point]"

# Reprinted at random: 2 entries already listed.
row,Compound,Potency
14,CCc1ccc(OCC(=O)NC(=S)Nc2ccc(C)cc2C)c(Br)c1,"inconclusive: 39.8 µM [inhibitor, single point]"
7,COC(=O)c1sccc1NC(=O)c1c(Cl)cnn1C,"inconclusive: 7.08 µM [inhibitor, single point]"

# Next part

row,Compound,Potency
1,CCN(CC)C(=O)CCc1nnc(CCc2c[nH]c3ccccc23)o1,"inconclusive: 5.01 µM [inhibitor, single point]"
2,O=C(Cc1n[nH]c(=O)c2ccccc12)Nc1cccc(S(=O)(=O)N2CCCCCC2)c1,"inconclusive: 7.08 µM [inhibitor, single point]"
3,COc1ccc(C(CNC(=O)c2oc3cc(Br)ccc3c2C)N2CCCCC2)cc1 (stereo not given),inactive
4,O=C(N/N=C/c1cc(Cl)c(O)c(Cl)c1)c1cc2c(ccc3ccccc32)o1,"inconclusive: 35.5 µM [inhibitor, single point]"
5,COc1cccc(-c2cc(C(=O)N3CCN(S(=O)(=O)c4ccccc4)CC3)[nH]n2)c1,"inconclusive: 8.91 µM [inhibitor, single point]"
6,Cc1ccc(NC(=O)C(C)S)cc1 (stereo not given),"inconclusive: 25.1 µM [inhibitor, single point]"
7,CC(=O)c1ccc(N(C)C)c2c(N(C)C)cccc12,"inconclusive: 4.47 µM [inhibitor, single point]"
8,Cc1n[nH]c(C)c1CN(C)C(=O)C1CCC(=O)N(CC2CCCCC2)C1 (stereo not given),"inconclusive: 22.4 µM [inhibitor, single point]"
9,COc1ccc(Cl)cc1C(=O)CSc1nnnn1C1CCCCC1,"inconclusive: 11.2 µM [inhibitor, partial curve, poor fit]"
10,O=C(Nc1nnc(S(=O)(=O)N2CCN(c3ccc(F)cc3)CC2)s1)c1ccco1,"inconclusive: 7.94 µM [inhibitor, partial curve]"
11,O=C(CSc1ncccn1)Nc1ccc(S(=O)(=O)N2CCCCC2)cc1,"inconclusive: 17.8 µM [inhibitor, partial curve]"
12,O=C(O)Cc1nc(-c2cccnc2)sc1-c1ccc(Br)cc1,"inconclusive: 7.08 µM [inhibitor, single point]"
13,O=C(NCc1nc2ccccc2[nH]1)c1cccs1,"inconclusive: 4.47 µM [inhibitor, partial curve]"
14,COc1ccccc1C1=Nn2c(COc3ccccc3)nnc2SC1,"inconclusive: 31.6 µM [inhibitor, single point]"
15,Cc1cc(NS(=O)(=O)c2ccc(NC(=O)COc3ccccc3C(C)C)cc2)no1,"inconclusive: 0.794 µM [inhibitor, full curve, poor fit]"
16,O=C(CSc1ncn[nH]1)c1ccccc1,"inconclusive: 39.8 µM [inhibitor, single point]"
17,CN(C(=O)Nc1ccc(Cl)cc1Cl)[C@H]1c2cc(Br)ccc2OC[C@H]1CO,"inconclusive: 39.8 µM [inhibitor, single point]"
18,O=C(CCC(=O)N1CCOc2ccccc21)NCCc1ccccc1,"inconclusive: 39.8 µM [inhibitor, partial curve, poor fit]"
19,COc1cccc(-c2cncnc2Nc2ccccc2)c1,"inconclusive: 39.8 µM [inhibitor, single point]"
20,COCCN(C(=O)c1cccc(N2C(=O)CCC2=O)c1)c1nc(-c2ccc([N+](=O)[O-])cc2)cs1,"inconclusive: 12.6 µM [inhibitor, partial curve]"
